Experimental data as given in article PMC5111114.

The chains behind the UniProt entries cited, without tags or fusion partners. Where a name states a change or a piece, a line headed by the entry shows the natural chain unless it says otherwise.
UniProt P12956: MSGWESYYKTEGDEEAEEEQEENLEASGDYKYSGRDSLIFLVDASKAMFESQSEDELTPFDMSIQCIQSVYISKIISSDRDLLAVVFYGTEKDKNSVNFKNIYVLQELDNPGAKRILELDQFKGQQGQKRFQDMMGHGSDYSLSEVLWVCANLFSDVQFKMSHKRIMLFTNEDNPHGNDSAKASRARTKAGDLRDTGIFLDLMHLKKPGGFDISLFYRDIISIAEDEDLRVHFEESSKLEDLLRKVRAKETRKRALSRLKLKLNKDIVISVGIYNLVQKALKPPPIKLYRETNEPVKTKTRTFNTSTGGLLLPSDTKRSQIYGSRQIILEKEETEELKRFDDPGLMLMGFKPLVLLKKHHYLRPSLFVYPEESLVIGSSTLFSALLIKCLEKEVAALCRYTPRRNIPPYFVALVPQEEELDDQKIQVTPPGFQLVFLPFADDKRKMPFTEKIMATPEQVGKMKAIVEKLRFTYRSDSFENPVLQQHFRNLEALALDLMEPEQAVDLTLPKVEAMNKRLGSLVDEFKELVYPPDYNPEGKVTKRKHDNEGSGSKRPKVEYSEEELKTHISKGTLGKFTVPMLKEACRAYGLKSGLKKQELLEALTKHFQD
UniProt O70126: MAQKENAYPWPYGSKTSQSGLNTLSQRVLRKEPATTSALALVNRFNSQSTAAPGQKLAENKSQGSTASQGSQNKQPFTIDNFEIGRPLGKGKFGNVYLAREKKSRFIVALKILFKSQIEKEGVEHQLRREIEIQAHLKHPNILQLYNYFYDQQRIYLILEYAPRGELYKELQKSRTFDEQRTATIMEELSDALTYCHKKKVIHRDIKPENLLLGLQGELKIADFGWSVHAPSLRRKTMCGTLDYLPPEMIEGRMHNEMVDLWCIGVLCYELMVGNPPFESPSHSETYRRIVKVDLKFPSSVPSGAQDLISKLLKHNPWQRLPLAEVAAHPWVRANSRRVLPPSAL

Target: biotin-conjugated Ku70 S155D peptide (loop region surrounding S155, aa 145 to 163) (UniProt P12956)
Assay: affinity purification with mass spectrometry; biotin-conjugated Ku70 peptides (aa 145-163, S155A or S155D) incubated with MEF nuclear extracts from cells untreated or subjected to 10 Gy of IR; pulled down with streptavidin beads; factors identified by mass spectrometry; only the target purified

## Aurora B (endogenous, mouse embryonic fibroblasts) (from UniProt O70126 1-345) (enzyme)
  binding: binds

No constants are given. Whether binding was seen depends on the method and setting. In cells and extracts the contact can be indirect. These calls come from enrichment with a bait or labelling near it, and not all partners need be listed.
